Reference: publication PMC11608253
No constants are given. Whether binding was seen depends on the method and setting. In cells and extracts the contact can be indirect.

Chains of the proteins cited; added tags and fusions are not shown.
UniProt Q86YZ3: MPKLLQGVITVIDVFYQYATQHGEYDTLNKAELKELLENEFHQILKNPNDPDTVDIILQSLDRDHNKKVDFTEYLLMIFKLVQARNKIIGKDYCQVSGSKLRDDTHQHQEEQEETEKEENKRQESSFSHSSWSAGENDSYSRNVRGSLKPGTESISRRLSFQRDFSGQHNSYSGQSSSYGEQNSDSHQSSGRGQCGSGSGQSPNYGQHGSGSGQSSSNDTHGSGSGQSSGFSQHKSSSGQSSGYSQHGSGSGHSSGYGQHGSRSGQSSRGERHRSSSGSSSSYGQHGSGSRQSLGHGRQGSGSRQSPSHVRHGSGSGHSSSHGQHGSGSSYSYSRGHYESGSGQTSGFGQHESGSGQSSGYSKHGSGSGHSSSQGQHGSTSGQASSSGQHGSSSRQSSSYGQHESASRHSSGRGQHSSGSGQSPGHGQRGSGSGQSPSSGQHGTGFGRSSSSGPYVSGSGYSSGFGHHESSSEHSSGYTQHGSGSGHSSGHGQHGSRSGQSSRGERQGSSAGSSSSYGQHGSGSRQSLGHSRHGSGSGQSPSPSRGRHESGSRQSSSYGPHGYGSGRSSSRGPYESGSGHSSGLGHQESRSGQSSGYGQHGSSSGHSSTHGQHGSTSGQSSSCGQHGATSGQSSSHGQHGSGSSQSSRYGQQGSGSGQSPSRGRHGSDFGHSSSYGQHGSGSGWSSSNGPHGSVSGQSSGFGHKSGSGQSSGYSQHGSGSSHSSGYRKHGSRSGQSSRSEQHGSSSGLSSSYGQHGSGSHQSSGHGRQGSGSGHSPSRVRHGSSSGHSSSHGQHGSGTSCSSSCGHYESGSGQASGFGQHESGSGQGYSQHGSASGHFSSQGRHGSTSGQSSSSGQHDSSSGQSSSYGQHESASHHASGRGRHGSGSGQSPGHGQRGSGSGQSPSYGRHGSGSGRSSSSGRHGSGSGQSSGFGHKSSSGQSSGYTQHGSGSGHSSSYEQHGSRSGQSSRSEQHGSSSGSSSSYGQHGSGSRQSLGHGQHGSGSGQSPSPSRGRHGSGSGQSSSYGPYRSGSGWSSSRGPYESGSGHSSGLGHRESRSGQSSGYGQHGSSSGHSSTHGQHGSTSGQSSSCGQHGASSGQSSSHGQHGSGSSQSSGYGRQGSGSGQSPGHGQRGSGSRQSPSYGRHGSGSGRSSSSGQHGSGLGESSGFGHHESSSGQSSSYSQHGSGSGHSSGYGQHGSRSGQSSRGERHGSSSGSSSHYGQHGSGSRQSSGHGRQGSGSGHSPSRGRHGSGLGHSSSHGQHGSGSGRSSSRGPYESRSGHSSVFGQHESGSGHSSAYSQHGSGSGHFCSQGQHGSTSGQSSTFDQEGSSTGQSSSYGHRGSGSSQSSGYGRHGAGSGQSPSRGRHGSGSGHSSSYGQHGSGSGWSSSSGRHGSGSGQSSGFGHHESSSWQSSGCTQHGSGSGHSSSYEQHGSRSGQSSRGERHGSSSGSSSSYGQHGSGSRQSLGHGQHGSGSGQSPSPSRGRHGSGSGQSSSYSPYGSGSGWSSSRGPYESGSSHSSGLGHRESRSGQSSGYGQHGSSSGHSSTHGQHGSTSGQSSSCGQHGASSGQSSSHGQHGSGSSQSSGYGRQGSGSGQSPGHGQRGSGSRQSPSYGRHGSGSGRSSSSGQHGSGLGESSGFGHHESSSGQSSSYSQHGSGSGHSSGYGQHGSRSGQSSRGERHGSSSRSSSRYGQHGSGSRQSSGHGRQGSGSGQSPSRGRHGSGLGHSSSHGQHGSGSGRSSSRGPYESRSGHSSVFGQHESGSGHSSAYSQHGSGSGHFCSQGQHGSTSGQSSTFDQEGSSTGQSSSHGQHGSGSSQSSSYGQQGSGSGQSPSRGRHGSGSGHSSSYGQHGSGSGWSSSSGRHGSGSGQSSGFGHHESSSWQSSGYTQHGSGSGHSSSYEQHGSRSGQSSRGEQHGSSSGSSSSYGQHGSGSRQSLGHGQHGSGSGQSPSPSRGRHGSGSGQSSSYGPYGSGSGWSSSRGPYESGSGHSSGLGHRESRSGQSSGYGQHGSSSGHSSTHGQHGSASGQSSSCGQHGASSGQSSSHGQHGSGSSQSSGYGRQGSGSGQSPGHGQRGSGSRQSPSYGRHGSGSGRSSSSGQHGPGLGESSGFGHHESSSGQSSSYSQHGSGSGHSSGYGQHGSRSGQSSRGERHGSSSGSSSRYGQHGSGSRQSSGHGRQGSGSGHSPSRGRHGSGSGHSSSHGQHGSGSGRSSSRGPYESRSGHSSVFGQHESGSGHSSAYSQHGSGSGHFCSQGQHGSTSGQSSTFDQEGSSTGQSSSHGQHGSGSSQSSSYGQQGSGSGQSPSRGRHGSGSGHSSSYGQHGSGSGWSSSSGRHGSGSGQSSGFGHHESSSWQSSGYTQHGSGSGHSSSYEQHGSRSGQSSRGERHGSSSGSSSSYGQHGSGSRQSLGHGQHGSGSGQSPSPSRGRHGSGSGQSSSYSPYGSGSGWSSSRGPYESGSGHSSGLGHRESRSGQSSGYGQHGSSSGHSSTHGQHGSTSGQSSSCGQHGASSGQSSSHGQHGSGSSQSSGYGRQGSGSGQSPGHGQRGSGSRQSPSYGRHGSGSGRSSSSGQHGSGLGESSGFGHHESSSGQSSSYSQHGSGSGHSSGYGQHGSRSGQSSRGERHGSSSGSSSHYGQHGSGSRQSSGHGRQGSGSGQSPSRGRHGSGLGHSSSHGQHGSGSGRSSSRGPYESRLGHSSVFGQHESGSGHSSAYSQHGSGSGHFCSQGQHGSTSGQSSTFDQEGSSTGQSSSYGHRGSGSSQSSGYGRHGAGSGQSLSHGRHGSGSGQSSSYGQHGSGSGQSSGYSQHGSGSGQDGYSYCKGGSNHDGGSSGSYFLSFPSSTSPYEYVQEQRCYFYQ
UniProt P49841: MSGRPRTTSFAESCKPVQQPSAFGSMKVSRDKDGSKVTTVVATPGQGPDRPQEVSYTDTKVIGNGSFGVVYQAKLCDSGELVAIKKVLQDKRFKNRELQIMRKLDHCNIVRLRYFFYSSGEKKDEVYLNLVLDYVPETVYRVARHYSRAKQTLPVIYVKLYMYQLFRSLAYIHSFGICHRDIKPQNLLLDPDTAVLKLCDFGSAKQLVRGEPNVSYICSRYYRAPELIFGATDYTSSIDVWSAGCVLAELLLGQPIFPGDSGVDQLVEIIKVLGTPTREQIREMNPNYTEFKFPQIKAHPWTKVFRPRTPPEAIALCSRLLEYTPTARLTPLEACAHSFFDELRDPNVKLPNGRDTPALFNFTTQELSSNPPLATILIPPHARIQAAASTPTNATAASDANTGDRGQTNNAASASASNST
UniProt Q9UBP6: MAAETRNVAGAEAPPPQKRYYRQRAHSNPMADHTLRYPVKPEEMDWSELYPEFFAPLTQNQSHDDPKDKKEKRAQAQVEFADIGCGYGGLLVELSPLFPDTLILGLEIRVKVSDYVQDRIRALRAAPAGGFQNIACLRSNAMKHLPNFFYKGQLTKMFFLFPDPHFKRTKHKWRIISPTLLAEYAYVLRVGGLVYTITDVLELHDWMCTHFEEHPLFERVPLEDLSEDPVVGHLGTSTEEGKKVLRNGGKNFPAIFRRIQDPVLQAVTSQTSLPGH

Target: Hornerin (human (endogenous in HCC cell lines)) (UniProt Q86YZ3)
Assay: co-IP; proteins extracted with RIPA buffer, incubated with specific antibodies overnight, captured on Protein A agarose, washed with cold PBS, western blotting

Row | binding | Substance
1 | no binding | GSK3β (from UniProt P49841 1-420) (enzyme)
2 | no binding | METTL1 (from UniProt Q9UBP6 1-276) (enzyme)
